In paper PMC4964934:
These are yes or no findings as the source states them, for the method shown. Binding seen in cells or lysates may run through a third protein. These calls come from enrichment with a bait or labelling near it, and not all partners need be listed.

Sequences of proteins named here, by UniProt entry; tags and fusion partners are left off.
UniProt O95243: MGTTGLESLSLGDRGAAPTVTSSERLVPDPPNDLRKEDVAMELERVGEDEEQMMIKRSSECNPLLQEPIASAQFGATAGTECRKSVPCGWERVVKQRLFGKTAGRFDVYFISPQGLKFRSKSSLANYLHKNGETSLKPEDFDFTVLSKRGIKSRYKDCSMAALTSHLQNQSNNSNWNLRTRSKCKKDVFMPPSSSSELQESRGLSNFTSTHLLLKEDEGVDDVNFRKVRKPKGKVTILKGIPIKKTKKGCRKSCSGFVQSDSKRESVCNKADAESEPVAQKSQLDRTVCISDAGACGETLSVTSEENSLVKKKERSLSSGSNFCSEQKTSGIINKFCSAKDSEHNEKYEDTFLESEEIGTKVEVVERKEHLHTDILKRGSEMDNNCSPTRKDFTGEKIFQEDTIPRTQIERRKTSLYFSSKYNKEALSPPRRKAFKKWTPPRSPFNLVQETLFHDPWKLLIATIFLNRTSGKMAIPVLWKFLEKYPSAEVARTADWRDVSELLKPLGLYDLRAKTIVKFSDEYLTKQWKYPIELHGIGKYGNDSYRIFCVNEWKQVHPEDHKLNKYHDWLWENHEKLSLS
UniProt Q93009: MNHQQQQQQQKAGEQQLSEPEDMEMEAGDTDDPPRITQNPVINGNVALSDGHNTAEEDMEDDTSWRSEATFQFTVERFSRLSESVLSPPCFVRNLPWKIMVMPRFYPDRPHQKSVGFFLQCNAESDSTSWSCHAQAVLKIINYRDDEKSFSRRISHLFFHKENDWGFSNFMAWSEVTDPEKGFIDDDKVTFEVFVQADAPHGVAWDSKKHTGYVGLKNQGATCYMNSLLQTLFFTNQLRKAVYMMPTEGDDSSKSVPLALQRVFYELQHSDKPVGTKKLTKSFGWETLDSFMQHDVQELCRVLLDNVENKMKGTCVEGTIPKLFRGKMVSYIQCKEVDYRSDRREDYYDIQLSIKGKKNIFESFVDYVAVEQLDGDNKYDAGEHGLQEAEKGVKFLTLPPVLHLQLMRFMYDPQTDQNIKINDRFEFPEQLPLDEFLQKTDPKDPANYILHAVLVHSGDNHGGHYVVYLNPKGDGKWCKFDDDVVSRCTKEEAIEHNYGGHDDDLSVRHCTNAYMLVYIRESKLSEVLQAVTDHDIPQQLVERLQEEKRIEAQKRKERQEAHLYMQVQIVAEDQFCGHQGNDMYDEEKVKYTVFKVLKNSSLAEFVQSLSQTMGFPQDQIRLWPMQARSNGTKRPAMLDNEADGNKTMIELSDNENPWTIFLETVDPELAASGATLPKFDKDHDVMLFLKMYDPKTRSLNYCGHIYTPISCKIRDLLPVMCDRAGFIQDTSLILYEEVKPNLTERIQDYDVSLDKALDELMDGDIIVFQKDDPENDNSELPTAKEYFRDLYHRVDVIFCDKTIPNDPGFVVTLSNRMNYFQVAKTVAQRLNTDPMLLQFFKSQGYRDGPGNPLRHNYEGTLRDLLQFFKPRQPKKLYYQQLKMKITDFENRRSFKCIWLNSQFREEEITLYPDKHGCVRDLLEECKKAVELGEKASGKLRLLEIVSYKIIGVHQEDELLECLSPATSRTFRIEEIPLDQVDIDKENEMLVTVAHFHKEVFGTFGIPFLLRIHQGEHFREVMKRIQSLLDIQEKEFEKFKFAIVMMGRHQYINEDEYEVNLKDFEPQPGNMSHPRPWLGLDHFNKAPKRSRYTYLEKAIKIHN

Molecular target: FLAG-hMBD4 (SF-TAP-hMBD4), human full-length MBD4 (human) (UniProt O95243)
Test: affinity purification with mass spectrometry; FLAG-MBD4 purified on anti-FLAG beads from MNase-digested nuclear extract of transfected 293T cells; SDS-PAGE, excised bands, Mascot search; control: empty vector

For “USP7 (ubiquitin specific peptidase 7, herpes virus-associated), found by mass spectrometry in the FLAG-MBD4 purification (from UniProt Q93009 1-1102)”, which binding is on record?
Its binding is “binds”.
